Measured values from patent publication US20080227684A1, “Small Molecule Inhibitors of PDZ Interactions” (priority 2005, published 2008).
Some results were stated once for a whole list of compounds, not compound by compound. For at least one compound, name, drawing or mass did not settle the structure.

What follows are compounds tested on PDZ proteins (assay: Titration analysis of small molecule competitors (FIG. 2B)). Conditions: FIG. 2B legend; PDZ protein not specified; read-out: Apparent IC50.
Assay type: binding
Work on `O=C(NCCO)C(=O)Nc1ccccc1C(=O)O` [MC 247808] yielded an IC50 of under 250 µM. `O=C(Nc1ccccc1C(=O)O)c1cccc(NC(=O)C(c2ccccc2)c2ccccc2)c1` [Compound 3289-2331] was tested, and the IC50 was under 250 µM. Compound `CC(=O)N1CCc2cc(S(=O)(=O)NC(Cc3ccccc3)C(=O)Nc3ccccc3C(=O)O)ccc21` (centres unmarked) [Compound C450-0454] has an IC50 of under 250 µM. `CCOc1ccc(NS(=O)(=O)c2cc(C(=O)Nc3ccccc3C(=O)O)ccc2C)cc1` [Compound 3558-0042] gave an IC50 of under 250 µM. `COc1cccc(-c2nc3c(c(SCC(=O)Nc4cccc(C(=O)O)c4)n2)Cc2c(CO)cnc(C)c2O3)c1` [Compound E544-0129] showed an IC50 of under 250 µM.
